The text below walks through data of publication PMC10470772.

By UniProt entry, the sequences of proteins in these tests, tags left out.
UniProt P0DKA0: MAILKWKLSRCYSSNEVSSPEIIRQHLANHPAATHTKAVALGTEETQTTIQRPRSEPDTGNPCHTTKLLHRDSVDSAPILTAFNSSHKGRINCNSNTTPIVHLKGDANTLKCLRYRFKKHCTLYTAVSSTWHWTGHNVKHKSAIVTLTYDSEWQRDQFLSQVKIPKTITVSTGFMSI
UniProt O15379: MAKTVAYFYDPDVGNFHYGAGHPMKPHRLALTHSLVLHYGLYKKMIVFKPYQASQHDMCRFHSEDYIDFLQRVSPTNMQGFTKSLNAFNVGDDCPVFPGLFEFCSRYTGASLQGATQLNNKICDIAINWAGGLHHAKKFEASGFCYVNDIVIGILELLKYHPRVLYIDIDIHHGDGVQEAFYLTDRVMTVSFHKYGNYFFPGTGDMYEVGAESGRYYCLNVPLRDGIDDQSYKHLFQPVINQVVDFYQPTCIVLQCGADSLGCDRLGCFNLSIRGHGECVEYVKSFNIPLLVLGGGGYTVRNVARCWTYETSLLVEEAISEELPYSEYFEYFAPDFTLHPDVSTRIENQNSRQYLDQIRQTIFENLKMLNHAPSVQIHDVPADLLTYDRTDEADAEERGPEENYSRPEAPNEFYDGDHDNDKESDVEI

These are yes or no findings as the source states them, for the method shown. In cells and extracts the contact can be indirect. Some binding calls cover weakened binding; strength is not graded here.

The assay has as its target HPV16 E8^E2-HA (human papillomavirus 16 (HPV16)) (UniProt P0DKA0). Nature of the assay: co-IP; HeLa cells transfected with HA-tagged E8^E2 expression vectors; endogenous HDAC3 and TBL1; lysed in IP-buffer (50 mM HEPES pH 7.9, 150 mM NaCl, 0.3% Igepal 630, 1 mM DTT); precipitated with magnetic anti-HA beads; immunoblot with anti-HDAC3, anti-TBL1 and anti-HA. On the technique in general: Immunoblotting shows a protein as a band on a membrane.

As for “endogenous HDAC3 (histone deacetylase 3) (from UniProt O15379 1-428)”, the binding result is “binds”.

B1: endogenous TBL1 (transducin beta-like protein 1) (protein, UniProt O60907 1-577)
chain: MTELAGASSSCCHRPAGRGAMQSVLHHFQRLRGREGGSHFINTSSPRGEAKMSITSDEVNFLVYRYLQESGFSHSAFTFGIESHISQSNINGTLVPPAALISILQKGLQYVEAEISINEDGTVFDGRPIESLSLIDAVMPDVVQTRQQAFREKLAQQQASAAAAAAAATAAATAATTTSAGVSHQNPSKNREATVNGEENRAHSVNNHAKPMEIDGEVEIPSSKATVLRGHESEVFICAWNPVSDLLASGSGDSTARIWNLNENSNGGSTQLVLRHCIREGGHDVPSNKDVTSLDWNTNGTLLATGSYDGFARIWTEDGNLASTLGQHKGPIFALKWNRKGNYILSAGVDKTTIIWDAHTGEAKQQFPFHSAPALDVDWQNNTTFASCSTDMCIHVCRLGCDRPVKTFQGHTNEVNAIKWDPSGMLLASCSDDMTLKIWSMKQEVCIHDLQAHNKEIYTIKWSPTGPATSNPNSNIMLASASFDSTVRLWDIERGVCTHTLTKHQEPVYSVAFSPDGKYLASGSFDKCVHIWNTQSGNLVHSYRGTGGIFEVCWNARGDKVGASASDGSVCVLDLRK
Consider B1, for which the binding entry was “binds”.
